Some results were stated once for a whole list of compounds, not compound by compound.
test system: Plasmodium falciparum 3D7; assay: SYBR Green assay, growth inhibition of Plasmodium falciparum cultured in vitro; format: cell-based; conditions: Plasmodium falciparum standard strain 3D7, cultured for 72 h
Experimental: Plasmodium falciparum in the ring stage was synchronized. Smearing was carried out and the infection rate was counted. The synchronized parasitized red blood cells, healthy red blood cells and mediums were matched in a reasonable ratio, resulting in an in vitro culture system of plasmodia (ring bodies, 2 to 4 hours-old) with a hematocrit of 2% and an infection rate of 1%. […] A1-A10 was paved with 25 µl of drugs (with 8 complex wells for each drug) and mixed evenly, and then diluted in multiple proportions (Ax-Hx). Except for A12-H12, 50 µL of a plasmodium culture solution was spread in all the other wells; and A12-H12 was spread with 50 µl of healthy red blood cells (in the medium with a hematocrit of 2%). […] 100 µl of a lysis buffer was added to each of the wells and put into a drawer to avoid light for 1 h.
In this experiment, SYBR Green assay was used to determine the median inhibitory concentration (IC50) value of the drug for treating Plasmodium falciparum 3D7. Nonlinear regression was used to calculate the value by means of software graphpad prism 8.0 (the value was equal to average value plus or minus standard error), and a four-parameter logistic fitting curve was used. Each value in the curve was equal to average value plus or minus standard error in eight biological repetitive experiments.

Row | Compound | IC50
1 | Cc1nc(C)c(COC(=O)CCCC(=O)OC2OC3OC4(C)CCC5C(C)CCC(C2C)C35OO4)nc1C [Compound Ia-4, (3R, 5aS, 6R, 9R, 10R, 12R, 12aR)-3,6,9-trimethyldecahydro-12h-3, 12-epoxy [1, 2] dioxopyran [4,3-i] isobenzopyran-10-yl ((3,5,6-trimethylpyrazine-2-yl)methyl) glutarate] | significant inhibitory effects
2 | Cc1nc(C)c(COC(=O)CCCCCC(=O)OC2OC3OC4(C)CCC5C(C)CCC(C2C)C35OO4)nc1C [Compound Ia-5, (3R, 5aS, 6R, 9R, 10R, 12R, 12aR)-3,6,9-trimethyldecahydro-12h-3, 12-epoxy [1, 2] dioxopyran [4,3-i] isobenzopyran-10-yl ((3,5,6-trimethylpyrazine-2-yl)methyl) pimelate] | significant inhibitory effects
3 | Cc1nc(C)c(COC(=O)CC(=O)OC2OC3OC4(C)CCC5C(C)CCC(C2C)C35OO4)nc1C [Compound Ia-2, (3R, 5aS, 6R, 9R, 10R, 12R, 12aR)-3,6,9-trimethyldecahydro-12h-3, 12-epoxy [1, 2] dioxopyran [4,3-i] isobenzopyran-10-yl ((3,5,6-trimethylpyrazine-2-yl)methyl) malonate] | significant inhibitory effects
4 | Cc1nc(C)c(COC(=O)CCCCC(=O)OC2OC3OC4(C)CCC5C(C)CCC(C2C)C35OO4)nc1C [Compound Ia-6, (3R, 5aS, 6R, 9R, 10R, 12R, 12aR)-3,6,9-trimethyldecahydro-12h-3, 12-epoxy [1, 2] dioxopyran [4,3-i] isobenzopyran-10-yl ((3,5,6-trimethylpyrazine-2-yl)methyl) adipate] | significant inhibitory effects
5 | Cc1nc(C)c(COCCOC2OC3OC4(C)CCC5C(C)CCC(C2C)C35OO4)nc1C [Compound Ia-8, 2,3,5-trimethyl-6-[(2-(((3R, 5aS, 6R, 9R, 12R, 12aR)-3,6,9-trimethylbicyclo [3.2.1]heptane-12H-3, 12-epoxide [1, 2]dioxacycloheptane [4,3-i]isochromene-10-yl)oxy)ethoxy)methyl] pyrazine] | significant inhibitory effects
6 | Cc1nc(C)c(COC(=O)CCCCCCC(=O)OC2OC3OC4(C)CCC5C(C)CCC(C2C)C35OO4)nc1C [Compound Ia-7, (3R, 5aS, 6R, 9R, 10R, 12R, 12aR)-3,6,9-trimethyldecahydro-12h-3, 12-epoxy [1, 2] dioxopyran [4,3-i] isobenzopyran-10-yl ((3,5,6-trimethylpyrazine-2-yl)methyl) suberate] | significant inhibitory effects

— patent EP4810498A1, “MEDICATION FOR TREATING SEVERE MALARIA AND SYNTHESIS METHOD THEREFOR” (Institute of Chinese Materia Medica, China Academy of …, priority 2023, dated 2025)
